Measurements from patent US20190315873A1 (AGOMAB THERAPEUTICS, published 2019).
These are yes or no findings as the source states them, for the method shown. Some binding calls cover weakened binding; strength is not graded here.

Amino acid sequences for entries named in this document (tags omitted). A change or cut given only in a name is not applied to a line headed by its entry. Residues count along the entry.
UniProt P08581: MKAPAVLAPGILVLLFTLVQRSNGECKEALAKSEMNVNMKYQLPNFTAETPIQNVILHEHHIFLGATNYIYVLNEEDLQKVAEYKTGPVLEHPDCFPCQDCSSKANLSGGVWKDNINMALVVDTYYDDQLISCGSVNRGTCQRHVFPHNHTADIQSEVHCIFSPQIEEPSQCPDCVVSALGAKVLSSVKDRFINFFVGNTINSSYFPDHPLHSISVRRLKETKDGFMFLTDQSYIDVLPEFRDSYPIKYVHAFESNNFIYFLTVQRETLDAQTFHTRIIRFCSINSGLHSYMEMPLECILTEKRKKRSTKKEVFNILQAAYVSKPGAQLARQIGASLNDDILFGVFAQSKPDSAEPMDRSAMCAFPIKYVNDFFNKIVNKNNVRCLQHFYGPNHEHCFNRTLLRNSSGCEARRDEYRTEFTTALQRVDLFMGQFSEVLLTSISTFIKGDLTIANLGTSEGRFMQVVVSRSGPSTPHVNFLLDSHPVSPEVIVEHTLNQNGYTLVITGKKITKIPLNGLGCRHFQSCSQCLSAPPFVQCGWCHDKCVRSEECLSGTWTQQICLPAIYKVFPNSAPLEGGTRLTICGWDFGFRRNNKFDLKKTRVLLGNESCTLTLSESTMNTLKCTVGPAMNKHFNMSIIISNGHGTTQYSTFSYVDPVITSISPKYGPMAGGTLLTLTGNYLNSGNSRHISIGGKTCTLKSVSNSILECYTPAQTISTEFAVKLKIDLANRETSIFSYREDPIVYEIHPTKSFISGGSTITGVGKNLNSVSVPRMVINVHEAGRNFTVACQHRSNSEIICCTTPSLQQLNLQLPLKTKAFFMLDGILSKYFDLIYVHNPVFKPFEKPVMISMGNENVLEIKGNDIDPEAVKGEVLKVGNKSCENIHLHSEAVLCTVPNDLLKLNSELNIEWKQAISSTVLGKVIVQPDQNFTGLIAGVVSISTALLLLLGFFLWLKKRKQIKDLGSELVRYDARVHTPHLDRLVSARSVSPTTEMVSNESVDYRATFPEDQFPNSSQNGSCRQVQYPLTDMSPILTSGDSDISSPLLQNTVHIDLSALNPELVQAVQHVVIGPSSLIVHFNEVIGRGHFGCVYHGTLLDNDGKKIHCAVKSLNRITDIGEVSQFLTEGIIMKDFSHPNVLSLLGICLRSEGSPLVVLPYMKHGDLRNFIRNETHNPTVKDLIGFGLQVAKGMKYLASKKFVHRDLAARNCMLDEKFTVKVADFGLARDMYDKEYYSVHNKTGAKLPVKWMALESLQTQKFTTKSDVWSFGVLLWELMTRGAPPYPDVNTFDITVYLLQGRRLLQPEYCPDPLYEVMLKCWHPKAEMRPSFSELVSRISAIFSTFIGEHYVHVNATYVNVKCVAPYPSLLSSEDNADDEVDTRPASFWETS
human MET on A549 human lung carcinoma cells: residues 25-1390 of P08581
Decoy MET (the entire human MET ECD): residues 25-932 of P08581
SEMA-PSI-IPT 1-2 (human MET ECD lacking IPT domains 3 and 4): residues 25-741 of P08581
SEMA-PSI (human MET ECD lacking IPT domains 1-4): residues 25-562 of P08581
isolated SEMA domain of human MET: residues 27-515 of P08581
UniProt P16056, residues 25-1379: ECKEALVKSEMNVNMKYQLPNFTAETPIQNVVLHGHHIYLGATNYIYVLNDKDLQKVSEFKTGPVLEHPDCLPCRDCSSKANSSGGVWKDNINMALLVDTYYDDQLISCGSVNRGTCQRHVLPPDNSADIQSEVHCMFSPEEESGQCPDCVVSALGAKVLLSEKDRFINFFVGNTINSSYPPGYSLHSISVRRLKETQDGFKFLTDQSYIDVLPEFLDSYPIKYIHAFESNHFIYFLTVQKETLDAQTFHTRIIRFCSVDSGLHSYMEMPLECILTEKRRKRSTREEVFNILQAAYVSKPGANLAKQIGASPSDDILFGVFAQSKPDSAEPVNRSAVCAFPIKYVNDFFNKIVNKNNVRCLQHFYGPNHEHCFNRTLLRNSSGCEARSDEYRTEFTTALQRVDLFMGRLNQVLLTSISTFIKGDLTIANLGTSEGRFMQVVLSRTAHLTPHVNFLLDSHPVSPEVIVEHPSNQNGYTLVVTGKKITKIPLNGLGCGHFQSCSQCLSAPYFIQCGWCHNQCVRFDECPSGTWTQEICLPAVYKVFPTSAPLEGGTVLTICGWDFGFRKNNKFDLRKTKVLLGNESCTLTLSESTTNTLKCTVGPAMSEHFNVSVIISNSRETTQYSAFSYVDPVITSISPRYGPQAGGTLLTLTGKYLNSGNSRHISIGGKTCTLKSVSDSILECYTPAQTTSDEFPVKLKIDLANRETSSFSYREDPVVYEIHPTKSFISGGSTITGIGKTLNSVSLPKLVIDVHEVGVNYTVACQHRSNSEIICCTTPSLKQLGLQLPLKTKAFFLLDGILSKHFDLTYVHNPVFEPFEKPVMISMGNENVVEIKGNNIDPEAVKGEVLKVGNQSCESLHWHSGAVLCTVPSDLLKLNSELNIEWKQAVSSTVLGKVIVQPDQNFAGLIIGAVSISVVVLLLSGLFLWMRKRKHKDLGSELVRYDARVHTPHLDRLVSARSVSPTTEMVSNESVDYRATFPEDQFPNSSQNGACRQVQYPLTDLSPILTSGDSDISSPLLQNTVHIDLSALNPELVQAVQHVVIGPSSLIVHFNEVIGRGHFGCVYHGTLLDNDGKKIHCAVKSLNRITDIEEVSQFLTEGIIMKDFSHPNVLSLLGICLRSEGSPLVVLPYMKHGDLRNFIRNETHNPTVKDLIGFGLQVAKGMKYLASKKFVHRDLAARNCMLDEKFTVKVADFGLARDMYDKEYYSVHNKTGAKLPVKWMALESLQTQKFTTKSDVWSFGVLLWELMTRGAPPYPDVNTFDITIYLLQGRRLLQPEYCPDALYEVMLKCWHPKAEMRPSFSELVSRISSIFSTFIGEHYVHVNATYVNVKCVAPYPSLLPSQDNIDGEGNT

What was measured:
[1] = molecular target: human MET on A549 human lung carcinoma cells (human) (UniProt P08581); assay: flow cytometry, A549 cells
[2] = molecular target: Decoy MET (the entire human MET ECD) (human) (UniProt P08581); assay: ELISA on MET deletion mutant
[3] = molecular target: SEMA-PSI (human MET ECD lacking IPT domains 1-4) (human) (UniProt P08581); assay: ELISA on MET deletion mutant
[4] = molecular target: SEMA-PSI-IPT 1-2 (human MET ECD lacking IPT domains 3 and 4) (human) (UniProt P08581); assay: ELISA on MET deletion mutant
[5] = molecular target: isolated SEMA domain of human MET (human) (UniProt P08581); assay: ELISA on MET deletion mutant
[6] = molecular target: mouse MET on MLP29 mouse liver precursor cells (mouse) (UniProt P16056); assay: flow cytometry, MLP29 cells
[7] = molecular target: monkey MET ECD (cynomolgus monkey); assay: ELISA on MET ECD (FIG. 29)
[8] = molecular target: monkey MET ECD (cynomolgus monkey); assay: ELISA: MET ECD immobilized (100 ng/well), mAb in human IgG1/lambda format in solution (0-40 nM), HRP anti-human Fc

| Binder | binding [1] | binding [2] | binding [3] | binding [4] | binding [5] | binding [6] | binding [7] | binding [8] |
| --- | --- | --- | --- | --- | --- | --- | --- | --- |
| 71C3 llama-human chimeric mAb (human IgG1/lambda) (antibody, V domains shown) VH: QLQLVESGGGLVQPGGSLRLSCAASGFTFSSHAMSWVRQAPGKGLEWVSAINSGGGSTSYADSVKGRFTISRDNAKNTLYLQMNSLKPEDTAVYYCAKELRFDLARYTDYEAWDYWGQGTQVTVSS VL: SYELTQPSALSVTLGQTAKITCQGGSLGSSYAHWYQQKPGQAPVLVIYDDDSRPSGIPERFSGSSSGGTATLTISGAQAEDEGDYYCQSADSSGNAAVFGGGTHLTVLQ | binds | binds | binds | binds | binds | binds | binds | binds |
| 71A3 llama-human chimeric mAb (human IgG1/lambda) (antibody, V domains shown) VH: EVQLVESGGGLVQPGGSLRLSCAASGFSFKDYDITWVRQAPGKGLEWVSTITSRSGSTSYVDSVKGRFTISGDNAKNTLYLQMNSLKPEDTAVYYCAKVYATTWDVGPLGYGMDYWGKGTLVTVSS VL: SYELTQPSALSVTLGQTAKITCQGGSLGSSYAHWYQQKPGQAPVLVIYDDDSRPSGIPERFSGSSSGGTATLTISGAQAEDEGDYYCQSADSSGNAAVFGGGTHLTVLQ | binds | binds | binds | binds | binds | binds | binds | binds |
| 71D4 llama-human chimeric mAb (human IgG1/lambda) (antibody, V domains shown) VH: ELQLVESGGGLVQPGGSLRLSCAASGFTFSGYGMSWVRQAPGKGLEWVSDINSGGGSTSYADSVKGRFTISRDNAKNTLYLQMNSLKPEDTAVYYCAKDMRLYLARYNDYEAWDYWGQGTQVTVSS VL: SSALTQPSALSVTLGQTAKITCQGGSLGSSYAHWYQQKPGQAPVLVIYDDDSRPSGIPERFSGSSSGGTATLTISGAQAEDEGDYYCQSADSSGNAAVFGGGTHLTVLQ | binds | binds | binds | binds | binds | binds | binds | binds |
| 76H10 llama-human chimeric mAb (human IgG1/lambda) (antibody, V domains shown) VH: QLQLVESGGGLVQPGGSLRVSCTASGFTFNTYYMTWVRQAPGKGLEWVSDINSGGGTYYADSVKGRFTISRDNAKNTLYLQMNSLKPEDTALYYCVRVRIWPVGYDYWGQGTQVTVSS VL: QAVVTQEPSLSVSPGGTVTLTCGLSSGSVTTSNYPGWFQQTPGQAPRTLIYNTNNRHSGVPSRFSGSISGNKAALTITGAQPEDEADYYCSLYTGSYTTVFGGGTHLTVLQ | binds | binds | binds | binds |  | binds | binds | binds |
| 74C8 llama-human chimeric mAb (human IgG1/lambda) (antibody, V domains shown) VH: EVQLVESGGGLVQPGGSLRLSCAASGFTFRNYHMSWVRQVPGKGFEWISDINSAGGSTYYADSVKGRFTISRDNAKNTLYLEMNSLKPEDTALYYCARVNVWGVNYWGKGTLVSVSS VL: QTVVTQEPSLSVSPGGTVTLTCGLSSGSVTTSNYPGWFQQTPGQAPRTLIYNTNSRHSGVPSRFSGSISGNKAALTITGAQPEDEADYYCSLYPGSYTNVFGGGTHLTVLQ | binds | binds | binds | binds | binds | binds |  |  |

Second part, the binder after the results:

| binding [1] | binding [2] | binding [3] | binding [4] | binding [5] | binding [6] | binding [7] | binding [8] | Binder |
| --- | --- | --- | --- | --- | --- | --- | --- | --- |
| binds | binds | binds | binds | binds | binds |  |  | 72F8 llama-human chimeric mAb (human IgG1/lambda) (antibody, V domains shown) VH: ELQLVESGGGLVQPGGSLRLSCAASGFTFSNYVMSWVRQAPGKGLEWVSDTNSGGSTSYADSVKGRFTISRDNAKNTLYLQMNSLKPEDTALYYCARSFFYGMNYWGKGTQVTVSS VL: QSALTQPPSLSASPGSSVRLTCTLSSGNNIGSYDISWYQQKAGSPPRYLLNYYTDSRKHQDSGVPSRFSGSKDASANAGLLLISGLQPEDEADYYCSAYKSGSYRWVFGGGTHVTVLQ |
| binds | binds | binds | binds |  | binds |  |  | 71G12 llama-human chimeric mAb (human IgG1/kappa) (antibody, V domains shown) VH: QVQLQESGGDLVQPGGSLRVSCVVSGFTFSRYYMSWVRQAPGKGLEWVSSIDSYGYSTYYTDSVKGRFTISRDNAKNTLYLQMNSLKPEDTALYYCARAKTTWSYDYWGQGTQVTVSS VL: EIVLTQSPSSVTASVGGKVTINCKSSQSVFIASNQKTYLNWYQQRPGQSPRLVISYASTRESGIPDRFSGSGSTTDFTLTISSVQPEDAAVYYCQQAYSHPTFGQGTKVELKR |
| binds | binds | binds | binds |  | binds |  |  | 76G7 llama-human chimeric mAb (human IgG1/lambda) (antibody, V domains shown) VH: QVQLVESGGNLVQPGGSLRLSCAASGFTFSNYYMSWVRQAPGKGLEWVSDIYSDGSTTWYSDSVKGRFTISRDNAKNTLSLQMNSLKSEDTAVYYCARVKIYPGGYDAWGQGTQVTVSS VL: QAGLTQPPSVSGSPGKTVTISCAGNSSDVGYGNYVSWYQQFPGMAPKLLIYLVNKRASGITDRFSGSKSGNTASLTISGLQSEDEADYYCASYTGSNNIVFGGGTHLTVLQ |
